Data source: PubChem BioAssay AID720505 (Drosophila RNAi Screening Center, 2013)
Screen: 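Genes needed for store-operated calcium entry in fly cells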 (primary screen). Cells: Drosophila S2R+ cells. Knock-down reagent: long dsRNA against Drosophila genes. Conditions: thapsigargin (2 µM) in calcium-free buffer to empty internal stores, then 2 mM calcium added back. Measurement: 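Fluo-4 signal in 384-well plates read on a FLIPR after thapsigargin (2 µM, calcium-free) store depletion and 2 mM calcium add-back; unnormalised mean endpoint per well; screen run twice, selected wells retested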. Reading the numbers: calcium signal: higher = more calcium entry after store depletion. Hit rule: 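Knock-downs counted as hits when calcium entry dropped relative to STIM1 positive and Rho1 negative controls present on each plate; roughly 1500 genes called, with reductions of differing size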. Meaning of the calls: active = called as lowering calcium entry; inactive = not called.
In all, the deposit lists about 20,000 reagents; this is a random part of those with a known target gene and a result. Of all reagents, about 2,100 (10%) were called active. 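Raw plate signals without normalisation; calls rest on control-based scores that were not deposited; replicate 2 separates called from uncalled poorly.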 The numbers tell different reagents against one gene apart. Not given: the amount of reagent, the time to read-out.

CG32099: calcium signal, replicate 1 = 146; calcium signal, replicate 2 = 103; call = inactive
Stoml2 (Stomatin like 2): calcium signal, replicate 1 = 101; calcium signal, replicate 2 = 95.6; call = inactive
Mks1 (Meckel syndrome, type 1): calcium signal, replicate 1 = 66.7; calcium signal, replicate 2 = 94.8; call = active
CtsF (Cathepsin F) #1: calcium signal, replicate 1 = 61.3; calcium signal, replicate 2 = 107; call = active
CtsF (Cathepsin F) #2: calcium signal, replicate 1 = 110; calcium signal, replicate 2 = 88.1; call = inactive
sima (similar) #1: calcium signal, replicate 1 = 221; calcium signal, replicate 2 = 178; call = inactive
sima (similar) #2: calcium signal, replicate 1 = 127; calcium signal, replicate 2 = 156; call = inactive
Tusp: calcium signal, replicate 1 = 86.2; calcium signal, replicate 2 = 79.8; call = inactive
Kebab (Kinetochore and EB1 associated basic protein): calcium signal, replicate 1 = 109; calcium signal, replicate 2 = 284; call = inactive
CG12640: calcium signal, replicate 1 = 126; calcium signal, replicate 2 = 111; call = inactive
lncRNA:CR32160 (long non-coding RNA:CR32160): calcium signal, replicate 1 = 151; calcium signal, replicate 2 = 197; call = inactive
Agps (Alkylglycerone phosphate synthase): calcium signal, replicate 1 = 117; calcium signal, replicate 2 = 181; call = inactive

2 consecutive records already listed, for reference:
CtsF (Cathepsin F) #2: calcium signal, replicate 1 = 110; calcium signal, replicate 2 = 88.1; call = inactive
sima (similar) #1: calcium signal, replicate 1 = 221; calcium signal, replicate 2 = 178; call = inactive
